Publication PMC11461529
No constants are given. Whether binding was seen depends on the method and setting. In cells and extracts the contact can be indirect. Some binding calls cover weakened binding; strength is not graded here. Blank lines part the entries; values can stand above or below the binder they belong to.

Biological target: T1, katanin-like 2 (KL2) (mouse (endogenous in mouse oocytes)) (UniProt Q9D3R6)
T1 sequence: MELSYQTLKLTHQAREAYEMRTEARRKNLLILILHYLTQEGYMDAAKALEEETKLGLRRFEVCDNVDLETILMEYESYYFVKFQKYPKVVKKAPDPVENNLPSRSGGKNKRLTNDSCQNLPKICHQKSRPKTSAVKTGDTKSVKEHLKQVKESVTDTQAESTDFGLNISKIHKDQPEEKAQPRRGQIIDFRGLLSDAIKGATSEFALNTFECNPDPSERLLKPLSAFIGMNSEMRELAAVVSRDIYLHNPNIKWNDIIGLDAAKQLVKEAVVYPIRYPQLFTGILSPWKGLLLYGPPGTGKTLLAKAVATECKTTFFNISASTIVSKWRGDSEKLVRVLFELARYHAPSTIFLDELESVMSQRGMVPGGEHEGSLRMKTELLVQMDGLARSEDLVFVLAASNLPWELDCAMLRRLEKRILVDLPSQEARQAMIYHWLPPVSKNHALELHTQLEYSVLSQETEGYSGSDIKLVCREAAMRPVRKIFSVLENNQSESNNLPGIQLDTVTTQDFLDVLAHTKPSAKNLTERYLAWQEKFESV
Experiment: co-IP; endogenous proteins of mouse oocyte lysate (Fig. 4B and 4D); which protein was precipitated is not given

- binding: binds
B1: phosphorylated eukaryotic elongation factor-2 kinase (p-eEF2K) (enzyme, UniProt O08796 1-724)
chain: MADEDLIFCLEGVDGGRCSRAGHNADSDTDSDDDEGYFICPITDDHMSNQNVSSKVQSYYSNLTKTECGSTGSPASSFHFKEAWKHAIEKAKHMPDPWAEFHLEDIATEHATRHRYNAVTGEWLKDEVLIKMASQPFGRGAMRECFRTKKLSNFLHAQQWKGASNYVAKRYIEPVDRSVYFEDVQLQMEAKLWGEDYNRHKPPKQVDIMQMCIIELKDRPGQPLFHLEHYIEGKYIKYNSNSGFVRDDNIRLTPQAFSHFTFERSGHQLIVVDIQGVGDLYTDPQIHTEKGTDFGDGNLGVRGMALFFYSHACNRICQSMGLTPFDLSPREQDAVNQSTRLLQSAKTILRGTEEKCGSPRIRTLSSSRPPLLLRLSENSGDENMSDVTFDSLPSSPSSATPHSQKLDHLHWPVFGDLDNMGPRDHDRMDNHRDSENSGDSGYPSEKRSDLDDPEPREHGHSNGNRRHESDEDSLGSSGRVCVETWNLLNPSRLHLPRPSAVALEVQRLNALDLGRKIGKSVLGKVHLAMVRYHEGGRFCEKDEEWDRESAIFHLEHAADLGELEAIVGLGLMYSQLPHHILADVSLKETEENKTKGFDYLLKAAEAGDRHSMILVARAFDTGLNLSPDRCQDWSEALHWYNTALETTDCDEGGEYDGIQDEPQYALLAREAEMLLTGGFGLDKNPQRSGDLYTQAAEAAMEAMKGRLANQYYEKAEEAWAQMEE
modifications: phosphorylated (site not stated)

- binding: binds
B2: eukaryotic elongation factor-2 kinase (eEF2K) (enzyme, UniProt O08796 1-724)
chain: B1 chain
